Paper PMC11700651
Results are given in words; binding and its absence hold for the method and conditions named. In cells and extracts the contact can be indirect. Here binding means that the protein was enriched with, or labelled near, the bait; the list need not be complete.

Biological target: Flag-METTL3 (methyltransferase-like 3) (human), Q86U44
Assay: affinity purification with mass spectrometry; pFlag-METTL3-transfected RD cells infected with EV71; IP with anti-Flag antibody; MS analysis
Details: remark: other sources report otherwise

B1: DEAD-box helicase 3X (DDX3X), endogenous, O00571 1-662 (protein)
chain: MSHVAVENALGLDQQFAGLDLNSSDNQSGGSTASKGRYIPPHLRNREATKGFYDKDSSGWSSSKDKDAYSSFGSRSDSRGKSSFFSDRGSGSRGRFDDRGRSDYDGIGSRGDRSGFGKFERGGNSRWCDKSDEDDWSKPLPPSERLEQELFSGGNTGINFEKYDDIPVEATGNNCPPHIESFSDVEMGEIIMGNIELTRYTRPTPVQKHAIPIIKEKRDLMACAQTGSGKTAAFLLPILSQIYSDGPGEALRAMKENGRYGRRKQYPISLVLAPTRELAVQIYEEARKFSYRSRVRPCVVYGGADIGQQIRDLERGCHLLVATPGRLVDMMERGKIGLDFCKYLVLDEADRMLDMGFEPQIRRIVEQDTMPPKGVRHTMMFSATFPKEIQMLARDFLDEYIFLAVGRVGSTSENITQKVVWVEESDKRSFLLDLLNATGKDSLTLVFVETKKGADSLEDFLYHEGYACTSIHGDRSQRDREEALHQFRSGKSPILVATAVAARGLDISNVKHVINFDLPSDIEEYVHRIGRTGRVGNLGLATSFFNERNINITKDLLDLLVEAKQEVPSWLENMAYEHHYKGSSRGRSKSSRFSGGFGARDYRQSSGASSSSFSSSRASSSRSGGGGHGSSRGFGGGGYGGFYNSDGYGGNYNSQGVDWWGN
- binding: binds
